Results as given in doi:10.1101/156513.

Biological target: GST fused to the C-terminal region of occludin (UniProt Q61146)
Test: pull-down

Substance: GFP-tagged ZPSG region of ZO-1 (ZPSG-1, residues 417-806) (from UniProt Q07157 417-806) (domain or fragment)
- binding: binds

These are yes or no findings as the source states them, for the method shown. Binding seen in cells or lysates may run through a third protein. Binding calls can cover weak binding; strength is not graded here.
